Results are given in words; binding and its absence hold for the method and conditions named. Binding seen in cells or lysates may run through a third protein. Some results given as binding are weak or reduced against the parent protein; the word gives no strength.
Biological target: HA-tagged full-length PPARγ (THP-1) (human) (UniProt P37231)
Test: co-IP; THP-1 cells transfected with HA-PPARγ or HA-tPPARγΔ64D; extracts precipitated with anti-HA and blotted with anti-MCAD, or precipitated with anti-MCAD and blotted with anti-HA; blots scanned

By UniProt entry, the sequences of proteins in these tests, tags left out. Residues count along the entry.
UniProt P37231, residues 29-505: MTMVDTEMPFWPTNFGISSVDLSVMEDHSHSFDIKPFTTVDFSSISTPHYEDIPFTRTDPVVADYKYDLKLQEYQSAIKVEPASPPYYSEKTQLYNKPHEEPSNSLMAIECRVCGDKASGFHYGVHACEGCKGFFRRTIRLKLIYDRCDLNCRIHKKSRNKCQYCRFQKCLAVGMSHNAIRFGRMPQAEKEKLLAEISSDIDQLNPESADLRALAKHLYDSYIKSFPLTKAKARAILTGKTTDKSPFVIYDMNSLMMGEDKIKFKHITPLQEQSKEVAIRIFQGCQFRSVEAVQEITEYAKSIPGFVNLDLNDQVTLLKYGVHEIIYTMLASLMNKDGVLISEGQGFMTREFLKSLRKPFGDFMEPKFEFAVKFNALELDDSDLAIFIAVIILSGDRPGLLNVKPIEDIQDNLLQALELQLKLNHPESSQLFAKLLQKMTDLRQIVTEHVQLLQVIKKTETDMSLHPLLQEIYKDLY

B1: medium-chain acyl-CoA dehydrogenase (MCAD), endogenous in THP-1 (enzyme, human (endogenous in THP-1), UniProt P11310 26-421, looked up)
chain: KANRQREPGLGFSFEFTEQQKEFQATARKFAREEIIPVAAEYDKTGEYPVPLIRRAWELGLMNTHIPENCGGLGLGTFDACLISEELAYGCTGVQTAIEGNSLGQMPIIIAGNDQQKKKYLGRMTEEPLMCAYCVTEPGAGSDVAGIKTKAEKKGDEYIINGQKMWITNGGKANWYFLLARSDPDPKAPANKAFTGFIVEADTPGIQIGRKELNMGQRCSDTRGIVFEDVKVPKENVLIGDGAGFKVAMGAFDKTRPVVAAGAVGLAQRALDEATKYALERKTFGKLLVEHQAISFMLAEMAMKVELARMSYQRAAWEVDSGRRNTYYASIAKAFAGDIANQLATDAVQILGGNGFNTEYPVEKLMRDAKIYQIYEGTSQIQRLIVAREHIDKYKN
notes: medium-chain acyl-CoA dehydrogenase (MCAD), mitochondrial; detected and precipitated with an anti-MCAD antibody; source: endogenous, THP-1 cell extract
  binding: binds

Source: paper PMC5626701, “Caspase-1 cleaves PPARγ for potentiating the pro-tumor action of TAMs” (Nature Communications, 2017)
